Laboratory results from publication doi:10.1101/2022.10.17.512236.
Results are given in words; binding and its absence hold for the method and conditions named. In cells and extracts the contact can be indirect. Some entries that bind do so weakly or less than the wild type.

The chains behind the UniProt entries cited, without tags or fusion partners.
UniProt Q14789: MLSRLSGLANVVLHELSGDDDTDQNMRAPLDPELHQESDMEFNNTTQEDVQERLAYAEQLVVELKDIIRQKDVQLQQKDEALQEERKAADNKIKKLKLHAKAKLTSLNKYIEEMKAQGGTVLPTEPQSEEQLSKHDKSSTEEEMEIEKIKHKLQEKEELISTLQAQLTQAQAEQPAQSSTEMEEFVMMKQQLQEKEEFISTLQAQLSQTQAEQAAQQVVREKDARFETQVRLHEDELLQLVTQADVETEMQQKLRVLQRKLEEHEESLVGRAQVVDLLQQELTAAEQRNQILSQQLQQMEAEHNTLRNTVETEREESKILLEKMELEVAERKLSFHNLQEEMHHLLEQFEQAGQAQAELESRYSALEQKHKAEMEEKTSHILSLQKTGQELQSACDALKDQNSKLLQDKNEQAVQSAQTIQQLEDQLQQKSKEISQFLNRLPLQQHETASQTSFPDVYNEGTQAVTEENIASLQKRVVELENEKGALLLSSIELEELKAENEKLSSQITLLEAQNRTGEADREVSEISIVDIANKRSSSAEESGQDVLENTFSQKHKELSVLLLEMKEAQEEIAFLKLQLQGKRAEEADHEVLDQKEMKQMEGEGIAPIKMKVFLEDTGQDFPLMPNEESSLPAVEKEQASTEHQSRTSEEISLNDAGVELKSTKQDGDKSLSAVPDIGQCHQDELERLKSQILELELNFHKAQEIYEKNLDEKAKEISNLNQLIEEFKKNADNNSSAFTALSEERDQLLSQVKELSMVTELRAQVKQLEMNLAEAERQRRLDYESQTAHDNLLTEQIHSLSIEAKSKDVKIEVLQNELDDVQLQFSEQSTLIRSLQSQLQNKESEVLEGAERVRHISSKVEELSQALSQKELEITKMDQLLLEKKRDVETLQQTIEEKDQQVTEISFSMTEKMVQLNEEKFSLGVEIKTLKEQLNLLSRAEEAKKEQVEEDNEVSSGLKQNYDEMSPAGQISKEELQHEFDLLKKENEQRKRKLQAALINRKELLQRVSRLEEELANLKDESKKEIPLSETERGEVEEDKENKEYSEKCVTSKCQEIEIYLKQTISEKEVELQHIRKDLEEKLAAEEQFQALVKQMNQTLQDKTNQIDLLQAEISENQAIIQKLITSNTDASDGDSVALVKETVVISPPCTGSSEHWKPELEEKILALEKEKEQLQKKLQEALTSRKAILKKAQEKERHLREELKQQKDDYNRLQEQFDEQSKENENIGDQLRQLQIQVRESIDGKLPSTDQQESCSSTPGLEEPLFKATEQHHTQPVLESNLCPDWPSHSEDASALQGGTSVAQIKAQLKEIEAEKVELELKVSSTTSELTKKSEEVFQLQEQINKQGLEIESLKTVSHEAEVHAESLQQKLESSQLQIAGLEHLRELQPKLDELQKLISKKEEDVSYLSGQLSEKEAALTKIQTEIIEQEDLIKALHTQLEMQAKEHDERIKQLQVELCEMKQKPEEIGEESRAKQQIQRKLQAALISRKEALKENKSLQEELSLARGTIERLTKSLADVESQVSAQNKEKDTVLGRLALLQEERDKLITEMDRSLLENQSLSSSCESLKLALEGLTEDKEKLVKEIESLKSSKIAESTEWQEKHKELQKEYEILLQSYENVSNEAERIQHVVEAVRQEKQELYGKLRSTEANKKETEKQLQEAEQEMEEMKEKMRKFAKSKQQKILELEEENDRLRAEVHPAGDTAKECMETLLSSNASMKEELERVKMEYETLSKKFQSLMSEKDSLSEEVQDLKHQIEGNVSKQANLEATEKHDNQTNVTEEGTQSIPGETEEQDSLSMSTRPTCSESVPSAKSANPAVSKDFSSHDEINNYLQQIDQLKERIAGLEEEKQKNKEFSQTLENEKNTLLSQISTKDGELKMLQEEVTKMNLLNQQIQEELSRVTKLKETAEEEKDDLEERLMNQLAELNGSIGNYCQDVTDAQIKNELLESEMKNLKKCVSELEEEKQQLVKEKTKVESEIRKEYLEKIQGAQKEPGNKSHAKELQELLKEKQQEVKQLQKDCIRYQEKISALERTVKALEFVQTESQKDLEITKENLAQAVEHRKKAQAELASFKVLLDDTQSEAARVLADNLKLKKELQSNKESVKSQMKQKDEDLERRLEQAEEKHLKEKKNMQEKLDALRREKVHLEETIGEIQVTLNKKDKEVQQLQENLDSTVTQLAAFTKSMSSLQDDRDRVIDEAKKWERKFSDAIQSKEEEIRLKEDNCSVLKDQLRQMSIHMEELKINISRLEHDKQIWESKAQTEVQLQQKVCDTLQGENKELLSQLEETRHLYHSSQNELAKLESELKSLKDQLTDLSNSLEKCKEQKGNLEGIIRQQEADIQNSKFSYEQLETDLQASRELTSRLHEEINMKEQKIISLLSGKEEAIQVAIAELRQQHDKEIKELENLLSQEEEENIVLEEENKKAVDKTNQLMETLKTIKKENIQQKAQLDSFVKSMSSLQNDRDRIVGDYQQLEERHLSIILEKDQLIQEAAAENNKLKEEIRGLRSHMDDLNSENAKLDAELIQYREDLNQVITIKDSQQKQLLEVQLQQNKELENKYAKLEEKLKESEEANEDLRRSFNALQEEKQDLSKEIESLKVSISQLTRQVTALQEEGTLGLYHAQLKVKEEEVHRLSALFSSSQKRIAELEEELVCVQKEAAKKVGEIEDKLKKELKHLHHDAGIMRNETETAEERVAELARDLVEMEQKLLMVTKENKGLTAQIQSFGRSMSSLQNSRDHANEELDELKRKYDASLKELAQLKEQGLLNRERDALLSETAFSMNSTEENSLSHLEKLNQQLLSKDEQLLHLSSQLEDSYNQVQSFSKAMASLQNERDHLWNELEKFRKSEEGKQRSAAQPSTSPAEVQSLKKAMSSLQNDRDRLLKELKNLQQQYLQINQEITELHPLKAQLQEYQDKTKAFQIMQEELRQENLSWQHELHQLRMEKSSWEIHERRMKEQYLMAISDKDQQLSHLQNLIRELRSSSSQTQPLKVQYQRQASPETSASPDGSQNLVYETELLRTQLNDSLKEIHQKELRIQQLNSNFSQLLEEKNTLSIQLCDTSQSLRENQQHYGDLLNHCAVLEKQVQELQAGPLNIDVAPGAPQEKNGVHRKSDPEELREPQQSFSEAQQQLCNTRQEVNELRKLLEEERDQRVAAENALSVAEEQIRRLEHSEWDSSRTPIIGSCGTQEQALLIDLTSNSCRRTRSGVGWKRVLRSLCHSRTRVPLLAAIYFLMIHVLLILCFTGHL

Target: T1, RAD51C (human (endogenous in HeLa)) (UniProt O43502)
T1 sequence: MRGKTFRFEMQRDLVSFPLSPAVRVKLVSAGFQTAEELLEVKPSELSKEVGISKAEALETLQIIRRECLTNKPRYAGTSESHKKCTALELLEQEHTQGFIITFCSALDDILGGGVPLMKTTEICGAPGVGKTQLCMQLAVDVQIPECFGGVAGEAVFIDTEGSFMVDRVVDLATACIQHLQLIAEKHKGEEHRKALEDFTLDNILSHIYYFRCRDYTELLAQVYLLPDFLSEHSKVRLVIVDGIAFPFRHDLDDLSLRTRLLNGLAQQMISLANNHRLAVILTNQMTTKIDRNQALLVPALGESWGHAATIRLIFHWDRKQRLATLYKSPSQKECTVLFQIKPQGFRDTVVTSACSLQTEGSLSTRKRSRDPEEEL
Test: co-IP

binding: binds
Substance: Giantin (GOLGB1) (from UniProt Q14789 1-3259)
